Experimental data: PubChem BioAssay AID1053208 (Peter MacCallum Cancer Centre, 2014)
Here is a random part of about 17,000 deposited reagents. Over the whole deposit, 788 (4.7%) are marked active. 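Calls rest on z-score classes alone; an extra cut-off of viability at most 70% of control was not applied to them.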 Not all columns of the deposit are shown. Reagent sequences are not shown.

Screen: 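Find knock-downs that sensitise mouse osteosarcoma cells to doxorubicin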 (primary screen)
Cells: mouse osteosarcoma cells, early-passage culture from an engineered mouse model of fibroblastic bone tumour
Reagents: siRNA pool against mouse genes, 40 nM
Duration: about 120 h (48 h before drug, then 72 h with drug)
Treatment: doxorubicin 100 nM for 72 h, roughly 30-40% inhibitory dose
Read-out: 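Luminescent ATP signal taken as viability with or without 100 nM doxorubicin for 72 h; mean of two wells set against non-targeting siRNA and turned into robust z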
Scale: viability z-score with doxorubicin: higher = more viable cells under doxorubicin; viability z-score without drug: higher = more viable cells with knock-down alone
Rule for the call: 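Called active if knock-down leaves viability unchanged without drug (z within -2 to 2) but lowers it with doxorubicin (z at or under -2)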

no.	Target gene	combined z-score class	viability z-score with doxorubicin	viability z-score without drug	outcome
1	Or13p4 (olfactory receptor family 13 subfamily P member 4)	no change with or without drug	0.79	-0.84	inactive
2	P2ry4 (pyrimidinergic receptor P2Y, G-protein coupled, 4)	no change with or without drug	0.9	1.18	inactive
3	Chrna1 (cholinergic receptor nicotinic alpha 1 subunit)	no change with or without drug	-0.22	-0.17	inactive
4	1110059E24Rik (RIKEN cDNA 1110059E24 gene)	no change with or without drug	1.57	1.52	inactive
5	Cbx4 (chromobox 4)	no change with or without drug	-0.45	-1.01	inactive
6	Ptprn (protein tyrosine phosphatase receptor type N)	no change with or without drug	-1.12	-0.34	inactive
7	Smad2 (SMAD family member 2)	no change with or without drug	1.12	0.17	inactive
8	Prrc1 (proline-rich coiled-coil 1)	no change with or without drug	1.01	0.51	inactive
9	Eif2s3y	no change with or without drug	0.34	0.51	inactive
10	Tnfrsf17 (tumor necrosis factor receptor superfamily, member 17)	no change with or without drug	-1.12	-0.84	inactive
11	Or52e7 (olfactory receptor family 52 subfamily E member 7)	no change with or without drug	-1.01	-1.18	inactive
12	Mir9-2hg (Mir9-2 host gene)	no change with or without drug	0.11	0.17	inactive
13	Slc5a1	no change with or without drug	-1.57	-1.01	inactive
14	Mrpl27 (mitochondrial ribosomal protein L27)	high cell count with doxorubicin only	2.59	-0.51	inactive
15	Plekho2 (pleckstrin homology domain containing O2)	no change with or without drug	-0.9	0.67	inactive
16	Eif3i (eukaryotic translation initiation factor 3, subunit I)	low cell count with and without drug	-4.38	-4.89	inactive
17	Spn (sialophorin)	no change with or without drug	-0.45	-0.51	inactive
18	1700001G17Rik (RIKEN cDNA 1700001G17 gene)	low cell count with doxorubicin only	-2.25	-1.52	active
19	Abcd3 (ATP-binding cassette, sub-family D member 3)	no change with or without drug	0	-0.17	inactive
20	Zic2 (zinc finger protein of the cerebellum 2)	no change with or without drug	0.45	0.17	inactive

Records listed above marked active:
Target gene	combined z-score class	viability z-score with doxorubicin	viability z-score without drug	outcome
1700001G17Rik (RIKEN cDNA 1700001G17 gene)	low cell count with doxorubicin only	-2.25	-1.52	active
